At least one peptide structure holds a part that was inferred or is arguable (an end, a ring closure or a residue).
Key:
[1] = test system: ovary removed SD rats (OVX induced rat osteoporosis model); assay: Bone mineral density (DXA) in ovariectomy-induced osteoporosis rats; assay type: in vivo; settings: for 0 w Bone mineral density lumbar vertebra / 0 w Bone mineral density thigh bone: 0 w (before administration, baseline); for 25 w Bone mineral density lumbar vertebra / 25 w Bone mineral density thigh bone / 0-25 w percentage of change % lumbar vertebra (bone mineral density) / 0-25 w percentage of change % thigh bone (bone mineral density): 5 times a week; for 0-25 w percentage of change % lumbar vertebra (bone mineral density) / 0-25 w percentage of change % thigh bone (bone mineral density): 25 w vs before administration
From the text: The animals had free access to water. […] 1) Bone mineral density (BMD) was detected with a dual-energy X-ray bone densitometry (DXA) before model establishment (−13 w), before administration (0 w), and 6 w, 12 w, 25 w, 37 w and 49 w after administration. […] The data were represented by mean value±standard error. Percentage of bone mineral density change=(bone mineral density at the detection time point−bone density before administration)/bone density before administration*100%

[2] = test system: retinoic acid-induced osteoporosis rats; assay: CT detection of bone microstructure of thigh bone in retinoic acid-induced osteoporosis rats; assay type: in vivo, SD rats; settings: RA-induced osteoporosis rats, 12 w
Description: The data were represented by mean value±standard error. After the experiment was completed, thigh bone on the right side of rats were collected, and subjected to CT detection, and […] (BV/TV), the number of trabeculae (TbN) and trabeculae spacing (TbSp) were calculated, and the results were shown in Table 4. An example was selected from each of Control group, Model group, abaloptide group, 20 μg/kg dosage group of Example 1, 20 μg/kg dosage group of Example 2 and 20 μg/kg dosage group of Example 5, and the scanned figures by micron X-ray 3D imaging system of trochlea of their thigh bone were shown in FIG. 1.

[3] = test system: retinoic acid-induced osteoporosis rats; assay: Three-point mechanical test of thigh bone in retinoic acid-induced osteoporosis rats; assay type: in vivo, SD rats; settings: RA-induced osteoporosis rats, 12 w

Row | Compound | 0 w Bone mineral density lumbar vertebra ([1]; 2.5 μg/kg group) | 0 w Bone mineral density thigh bone ([1]; 2.5 μg/kg group) | 25 w Bone mineral density lumbar vertebra ([1]; 2.5 μg/kg subcutaneous) | 25 w Bone mineral density thigh bone ([1]; 2.5 μg/kg subcutaneous) | 0-25 w percentage of change % lumbar vertebra (bone mineral density) ([1]; 2.5 μg/kg subcutaneous) | 0-25 w percentage of change % thigh bone (bone mineral density) ([1]; 2.5 μg/kg subcutaneous) | 0 w Bone mineral density lumbar vertebra ([1]; 5 μg/kg group) | 0 w Bone mineral density thigh bone ([1]; 5 μg/kg group) | 25 w Bone mineral density lumbar vertebra ([1]; 5 μg/kg subcutaneous) | 25 w Bone mineral density thigh bone ([1]; 5 μg/kg subcutaneous) | 0-25 w percentage of change % lumbar vertebra (bone mineral density) ([1]; 5 μg/kg subcutaneous) | 0-25 w percentage of change % thigh bone (bone mineral density) ([1]; 5 μg/kg subcutaneous) | 0 w Bone mineral density lumbar vertebra ([1]; 10 μg/kg group) | 0 w Bone mineral density thigh bone ([1]; 10 μg/kg group) | 25 w Bone mineral density lumbar vertebra ([1]; 10 μg/kg subcutaneous) | 25 w Bone mineral density thigh bone ([1]; 10 μg/kg subcutaneous) | 0-25 w percentage of change % lumbar vertebra (bone mineral density) ([1]; 10 μg/kg subcutaneous) | 0-25 w percentage of change % thigh bone (bone mineral density) ([1]; 10 μg/kg subcutaneous) | BV/TV (CT, thigh bone) ([2]; 10 μg/kg subcutaneous) | TbN, number of trabeculae (CT, thigh bone) ([2]; 10 μg/kg subcutaneous) | further results
1 | CC[C@H](C)[C@H](NC(=O)[C@H](CO)NC(=O)[C@H](CCCCN)NC(=O)CNC(=O)[C@H](CCCCN)NC(=O)[C@H](CC(=O)O)NC(=O)[C@H](Cc1c[nH]cn1)NC(=O)[C@H](CC(C)C)NC(=O)[C@H](CC(C)C)NC(=O)[C@H](CCC(N)=O)NC(=O)[C@H](Cc1c[nH]cn1)NC(=O)[C@H](CCC(=O)O)NC(=O)[C@H](CO)NC(=O)[C@@H](NC(=O)[C@H](C)N)C(C)C)C(=O)N[C@@H](CCC(N)=O)C(=O)N[C@@H](CC(=O)O)C(=O)N[C@@H](CC(C)C)C(=O)N[C@@H](CCCNC(=N)N)C(=O)N[C@@H](CCCNC(=N)N)C(=O)N[C@@H](CCCNC(=N)N)C(=O)N[C@@H](CCC(=O)O)C(=O)N[C@@H](CC(C)C)C(=O)N[C@@H](CC(C)C)C(=O)N[C@@H](CCC(=O)O)C(=O)N[C@@H](CCCCN)C(=O)N[C@@H](CC(C)C)C(=O)N[C@@H](CC(C)C)C(=O)N(C)[C@@H](C)C(=O)N[C@@H](CCCCN)C(=O)N[C@@H](CC(C)C)C(=O)N[C@@H](Cc1c[nH]cn1)C(=O)N[C@H](C(=O)N[C@@H](C)C(=O)N[C@@H](Cc1ccc(O)cc1)C(=O)NCC(=O)N[C@@H](Cc1ccccc1)C(=O)NCC(=O)NCC(=O)O)[C@@H](C)O [Example 1] | 0.21 ± 0.00 g/cm^2 | 0.23 ± 0.01 g/cm^2 | 0.23 ± 0.01 g/cm^2 | 0.28 ± 0.01 g/cm^2 | 2.82 ± 4.46% | 30.75 ± 3.69 % | 0.22 ± 0.00 g/cm^2 | 0.23 ± 0.01 g/cm^2 | 0.27 ± -0.01 g/cm^2 | 0.30 ± 0.01 g/cm^2 | 24.82 ± 4.93 % | 37.67 ± 2.70 % | 0.22 ± 0.00 g/cm^2 | 0.25 ± 0.01 g/cm^2 | 0.27 ± 0.01 g/cm^2 | 0.31 ± 0.01 g/cm^2 | 24.91 ± 7.23 % | 38.15 ± 4.87 % | 0.34 | 4.24 mm^−1 | TbSp, trabeculae spacing (CT, thigh bone) ([2]; 10 μg/kg subcutaneous): 0.17 mm; BV/TV (CT, thigh bone) ([2]; 20 μg/kg subcutaneous): 0.32; TbN, number of trabeculae (CT, thigh bone) ([2]; 20 μg/kg subcutaneous): 4.01 mm^−1; TbSp, trabeculae spacing (CT, thigh bone) ([2]; 20 μg/kg subcutaneous): 0.19 mm; BV/TV (CT, thigh bone) ([2]; 40 μg/kg subcutaneous): 0.41; TbN, number of trabeculae (CT, thigh bone) ([2]; 40 μg/kg subcutaneous): 4.25 mm^−1; TbSp, trabeculae spacing (CT, thigh bone) ([2]; 40 μg/kg subcutaneous): 0.14 mm; Peak load of three-point mechanics (thigh bone) ([3]; 10 μg/kg subcutaneous): 98.11 N; Peak load of three-point mechanics (thigh bone) ([3]; 20 μg/kg subcutaneous): 123.54 N; Peak load of three-point mechanics (thigh bone) ([3]; 40 μg/kg subcutaneous): 130.38 N
2 | CC[C@H](C)[C@H](NC(=O)[C@H](CO)NC(=O)[C@H](CCCCN)NC(=O)CNC(=O)[C@H](CCCCN)NC(=O)[C@H](CC(=O)O)NC(=O)[C@H](Cc1c[nH]cn1)NC(=O)[C@H](CC(C)C)NC(=O)[C@H](CC(C)C)NC(=O)[C@H](CCC(N)=O)NC(=O)[C@H](Cc1c[nH]cn1)NC(=O)[C@H](CCC(=O)O)NC(=O)[C@H](CO)NC(=O)[C@@H](NC(=O)[C@H](C)N)C(C)C)C(=O)N[C@@H](CCC(N)=O)C(=O)N[C@@H](CC(=O)O)C(=O)N[C@@H](CC(C)C)C(=O)N[C@@H](CCCNC(=N)N)C(=O)N[C@@H](CCCNC(=N)N)C(=O)N[C@@H](CCCNC(=N)N)C(=O)N[C@@H](CCC(=O)O)C(=O)N[C@@H](CC(C)C)C(=O)N[C@@H](CC(C)C)C(=O)N[C@@H](CCC(=O)O)C(=O)N[C@@H](CCCCN)C(=O)N[C@@H](CC(C)C)C(=O)N[C@@H](CC(C)C)C(=O)NC(C)(C)C(=O)N[C@@H](CCCCN)C(=O)N[C@@H](CC(C)C)C(=O)N[C@@H](Cc1c[nH]cn1)C(=O)N[C@H](C(=O)N[C@@H](C)C(=O)N[C@@H](Cc1ccc(O)cc1)C(=O)NCC(=O)N[C@@H](Cc1ccccc1)C(=O)NCC(=O)NCC(=O)O)[C@@H](C)O [Example 2] | 0.24 ± 0 g/cm^2 | 0.23 ± 0 g/cm^2 | 0.29 ± 0.01 g/cm^2 | 0.28 ± 0 g/cm^2 | 18.49 ± 2.13 % | 22.21 ± 1.54 % | 0.24 ± 0 g/cm^2 | 0.23 ± 0 g/cm^2 | 0.31 ± 0.01 g/cm^2 | 0.3 ± 0 g/cm^2 | 29.61 ± 2.26 % | 29.17 ± 1.86 % | 0.24 ± 0.01 g/cm^2 | 0.23 ± 0 g/cm^2 | 0.31 ± 0.01 g/cm^2 | 0.31 ± 0 g/cm^2 | 30.94 ± 2.24 % | 33.68 ± 1.84 % | 0.35 | 4.10 mm^−1 | TbSp, trabeculae spacing (CT, thigh bone) ([2]; 10 μg/kg subcutaneous): 0.17 mm; BV/TV (CT, thigh bone) ([2]; 20 μg/kg subcutaneous): 0.32; TbN, number of trabeculae (CT, thigh bone) ([2]; 20 μg/kg subcutaneous): 4.06 mm^−1; TbSp, trabeculae spacing (CT, thigh bone) ([2]; 20 μg/kg subcutaneous): 0.18 mm; BV/TV (CT, thigh bone) ([2]; 40 μg/kg subcutaneous): 0.40; TbN, number of trabeculae (CT, thigh bone) ([2]; 40 μg/kg subcutaneous): 4.38 mm^−1; TbSp, trabeculae spacing (CT, thigh bone) ([2]; 40 μg/kg subcutaneous): 0.15 mm; Peak load of three-point mechanics (thigh bone) ([3]; 10 μg/kg subcutaneous): 97.87 N; Peak load of three-point mechanics (thigh bone) ([3]; 20 μg/kg subcutaneous): 122.02 N; Peak load of three-point mechanics (thigh bone) ([3]; 40 μg/kg subcutaneous): 133.38 N
